Laboratory results: PubChem BioAssay AID493014 (National Center for Advancing Translational Sciences (NCATS), 2011)
The other results are listed elsewhere or left out. Shown are side measurements of this screen, not its main read-out; they come without a call. Compounds called inactive in the main read-out are mostly missing here. Words in brackets tell the shape of the fitted curve; partial curves, single points and poor fits give uncertain potencies.

Assay: qHTS Assay to Find Inhibitors of Chronic Active B-Cell Receptor Signaling
Settings: ABC-DLBCL IkBa-CBG/CBR reporter, luminescence ratio (green luciferase fused to IkBa over red control in TMD8 lymphoma cells), 4 h
Method in brief: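 Concentration-response series (up to 46 uM) were applied to TMD8 dual-reporter cells for 4 h at 37C with doxycycline. Green/red ratio, after filter-overlap correction, defined %Activity; red signal alone was normalised to basal cells and zero luminescence.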

[1] = measured here: CBR red luminescence, cell number
[2] = measured here: IkBa-CBG green luminescence

Row | SMILES | AC50 [1] | AC50 [2]
1 | COC(=O)c1ccccc1NC(=O)CN1CCCCCC1 | 10 µM [falling, partial curve, poor fit] | 
2 | Cc1cccc(N2CCN(C(=O)C3CCN(S(=O)(=O)c4cccnc4)CC3)CC2)c1C | 0.058 µM [rising, full curve, poor fit] | 
3 | COCC(C)Nc1ncnc2c1cnn2-c1cccc(Cl)c1 (stereo not given) | 3.16 µM [falling, full curve, poor fit] | 
4 | COc1cc(/C=N/NC(=O)C2=NNC(=O)C2C)ccc1O (stereo not given) | 14.1 µM [falling, partial curve, poor fit] | 
5 | COc1ccccc1OCCNC(=O)c1ccc2c(c1)OCCO2 | 6.51 µM [falling, partial curve, poor fit] | 
6 | O=C(N/N=C1\CCCc2ccccc21)c1cccc([N+](=O)[O-])c1 | 1.16 µM [rising, full curve, poor fit] | 
7 | COc1ccc(Cl)cc1-c1nc(SCC(=O)N(C)C)n[nH]1 | 35.5 µM [falling, single point] | 
8 | COc1ccc(C/C(C)=N\NC(=O)c2c[nH]c3ccccc23)cc1OC | 3.98 µM [falling, partial curve, poor fit] | 
9 | Cc1ccsc1/C=N/NC(=O)c1cccs1 | 29.1 µM [falling, single point] | 
10 | COc1ccc(CC(=O)Nc2ccc(-c3nc4ccccc4s3)c(C)c2)cc1 | 6.31 µM [rising, single point] | 
11 | COc1ccc(C2CC(=O)Oc3c(C(CCN4CCCCC4)c4ccc(N(C)C)cc4)c(OC)cc(OC)c32)cc1 (stereo not given) | 35.5 µM [falling, single point] | 
12 | COc1ccc(NC(=O)CCCn2c(=O)c3sccc3n(Cc3ccc(C)cc3)c2=O)cc1 | 2.06 µM [rising, partial curve] | 
13 | NNC(=O)c1nnn(-c2nonc2N)c1CN1CCc2ccccc2C1 | 0.501 µM [rising, full curve, poor fit] | 
14 | CCC1(CC)Nc2ccccc2C(=O)N1c1ccc(OC)cc1 | 12.6 µM [falling, single point] | 
15 | C=CC[C@H](CC(=O)N(CCO)Cc1ccccc1)C(=O)N[C@@H](COC(=O)[C@H](CC=C)CC(=O)OC(C)(C)C)Cc1c[nH]c2ccccc12 | 29.1 µM [falling, single point] | 
16 | Cc1nn2c(N3CCOCC3)cc(C(C)C)nc2c1-c1ccccc1 | 8.91 µM [rising, partial curve, poor fit] | 
17 | COc1cc(C2Nc3ccc4ccccc4c3C3=C2C(=O)CC(C)(C)C3)ccc1OC(C)C(=O)O (stereo not given) | 20 µM [falling, partial curve] | 
18 | CSc1ccccc1-n1nnnc1SCC(=O)Nc1ccccc1C | 1.84 µM [falling, full curve, poor fit] | 
19 | Cc1nccn1CC(=O)N/N=C/c1ccccc1O | 6.31 µM [rising, partial curve] | 
20 | CC1=C(C(=O)OCc2ccccc2)C(c2cccnc2)c2c(n(C)c(=O)n(C)c2=O)N1 (stereo not given) | 0.316 µM [falling, full curve] | 
21 | Cc1ccsc1/C=C1/C(=O)NN(c2ccccc2)C1=O | 17.8 µM [falling, single point] | 
22 | COc1cc(-c2cc(-c3ccc(F)cc3)nc(N)c2C#N)ccc1O | 12.6 µM [falling, single point] | 

Row | SMILES | AC50 [1] | AC50 [2]
23 | O=C(Nc1cc(Sc2ccccn2)cc([N+](=O)[O-])c1)c1cccc(Cl)c1 | 18.4 µM [falling, partial curve, poor fit] | 
24 | CC1=Nc2cc(C(=O)NCc3ccco3)ccc2Sc2ccc(C)cc21 | 8.2 µM [rising, partial curve] | 5.8 µM [falling, partial curve]
25 | O=C(c1cccs1)N1CCN=C1SCc1ccc(F)cc1 | 5.01 µM [rising, single point] | 
26 | Cc1[nH]n(C(N)=S)c(=O)c1C(c1ccccc1)C(C#N)C#N (stereo not given) | 2.31 µM [falling, partial curve] | 
27 | COC(=O)c1cc(C#N)c(OC(C)C)nc1C | 2.24 µM [rising, full curve, poor fit] | 
28 | CC(C)(C)C(=O)NC(Nc1cccc2cccnc12)C(Cl)(Cl)Cl (stereo not given) | 11.2 µM [falling, single point] | 
29 | O=C(NC(=S)Nc1ccc(O)cc1)c1ccccc1Cl | 12.6 µM [falling, single point] | 
30 | CCCN(CCC)CCNC(=O)CCC(=O)Nc1ccc2nc(N3CCN(C)CC3)cc(C)c2c1 | 10 µM [falling, partial curve, poor fit] | 
31 | CCCc1[nH]nc2c1C(c1cn[nH]c1-c1ccc(F)cc1)C(C#N)=C(N)O2 (stereo not given) | 6.51 µM [falling, single point] | 
32 | CCc1ccc(NC(=O)C2CCN(C(=O)[C@@H]3Cc4ccccc4CN3)CC2)cc1 | 0.631 µM [rising, partial curve, poor fit] | 
33 | COc1ccccc1N1CCN(/N=C/c2ccc([N+](=O)[O-])cc2)CC1 | 7.08 µM [rising, partial curve, poor fit] | 
34 | COc1ccc(Sc2nc3ccccc3n3c(C(F)(F)F)nnc23)cc1 | 20 µM [falling, single point] | 
35 | C1=Nc2c(NCc3ccccc3)ncnc2Oc2ccccc21 | 0.92 µM [rising, partial curve, poor fit] | 
36 | Cc1ccc(-c2nc3cc(Cl)ccc3o2)cc1 | 0.116 µM [rising, full curve, poor fit] | 
37 | CSc1cccc(NC(=S)Nc2ccc(F)cc2)c1 | 3.16 µM [rising, single point] | 
38 | C#CCN(Cc1ccccc1)S(=O)(=O)C=C | 8.2 µM [falling, partial curve, poor fit] | 
39 | Cc1ccccc1OCCn1nc(C(=O)O)c2ccccc2c1=O | 2.51 µM [rising, partial curve] | 
40 | CC(C)CN(CC(C)C)c1nc(N)c(C#N)c(CC#N)c1C#N | 2.91 µM [falling, full curve] | 
41 | COC(=O)CN1C(c2ccc(Cl)cc2)=Nc2ccc(Cl)cc2C1c1ccccc1 (stereo not given) | 3.66 µM [falling, full curve] | 
42 | C/C(=N\Nc1ccc(Cl)cc1)c1ccncc1 | 0.112 µM [rising, full curve, poor fit] | 
43 | CCN(Cc1ccccc1)S(=O)(=O)c1ccc(OC)cc1 | 35.5 µM [rising, single point] | 
44 | O=C(Nc1ccc(F)c(F)c1)c1ccc(F)c(S(=O)(=O)N2CCC3(CC2)OCCO3)c1 | 2.51 µM [rising, partial curve, poor fit] | 

Quoted from above, entries 12–15
Row | SMILES | AC50 [1] | AC50 [2]
12 | COc1ccc(NC(=O)CCCn2c(=O)c3sccc3n(Cc3ccc(C)cc3)c2=O)cc1 | 2.06 µM [rising, partial curve] | 
13 | NNC(=O)c1nnn(-c2nonc2N)c1CN1CCc2ccccc2C1 | 0.501 µM [rising, full curve, poor fit] | 
14 | CCC1(CC)Nc2ccccc2C(=O)N1c1ccc(OC)cc1 | 12.6 µM [falling, single point] | 
15 | C=CC[C@H](CC(=O)N(CCO)Cc1ccccc1)C(=O)N[C@@H](COC(=O)[C@H](CC=C)CC(=O)OC(C)(C)C)Cc1c[nH]c2ccccc12 | 29.1 µM [falling, single point] | 

Further entries follow:

Row | SMILES | AC50 [1] | AC50 [2]
45 | CC1(C(=O)O)Sc2[nH]c(=O)sc2C2c3ccccc3OC(=O)C21 (stereo not given) | 15.8 µM [falling, single point] | 
46 | C[C@H](CO)N1C[C@H](C)[C@@H](CN(C)Cc2ccc(Cl)c(Cl)c2)Oc2c(NC(=O)C3CCOCC3)cccc2C1=O | 10.3 µM [falling, single point] | 
47 | O=C(CCCc1nc(-c2ccccc2)no1)N1CCOCC1 | 5.01 µM [rising, partial curve, poor fit] | 
48 | Cn1c(=O)cc(SCC(=O)N2CCN(C(=O)c3ccco3)CC2)c2ccccc21 |  | 13 µM [falling, partial curve, poor fit]
49 | CCOC(=O)[C@H]1[C@H]2COc3ccccc3[C@@H]2N2C(=O)c3cc(F)ccc3NC(=O)[C@@]12C | 20.6 µM [falling, single point] | 
50 | Cc1onc(-c2ccccc2Cl)c1C(=O)NC1CCCCCC1 | 17.8 µM [falling, single point] | 
51 | CC(C)(C)c1cc(NCCCn2ccnc2)n2ncc(-c3ccc(Cl)cc3)c2n1 | 3.98 µM [falling, partial curve] | 
52 | Cc1c(N)cccc1-c1nc2ccccc2[nH]1 | 8.2 µM [falling, partial curve] | 
53 | COC(=O)c1c(-c2ccc(C)cc2)csc1NC(=S)NC(=O)c1cc(OC)cc(OC)c1 | 2.59 µM [falling, full curve, poor fit] | 
54 | CN(C)S(=O)(=O)N1CCC(Oc2cccc(C(=O)NCCCC3CCCC3)c2)CC1 | 7.94 µM [falling, partial curve] | 
55 | Cc1ccc(-c2nnc(Nc3ccc(O)cc3)c3ccccc23)cc1S(=O)(=O)NCCO | 14.1 µM [falling, partial curve] | 
56 | O=C(NCc1ccccc1)c1ccc(Br)cc1Br | 11.6 µM [rising, partial curve, poor fit] | 
57 | COc1ccc(Cl)cc1C(=O)Nn1c(-c2cccs2)nc2ccccc2c1=O | 25.9 µM [falling, partial curve, poor fit] | 
58 | CCCCCOc1ccc(NC(=O)CSc2cccc3cccnc23)cc1 |  | 18.4 µM [falling, single point]
59 | O=C(Nc1cccc([N+](=O)[O-])c1)N1CCCc2ccccc21 | 31.6 µM [rising, single point] | 
60 | O=C(Nc1ccc(F)cc1F)c1cc(-c2ccc3c(c2)OCO3)on1 | 0.0891 µM [falling, full curve, poor fit] | 
61 | Cc1cc(C)cc(OCc2ccc(C(=O)O)o2)c1 | 20.6 µM [falling, single point] | 
62 | COc1nc(Cl)cn(-c2ccc(Cl)cc2)c1=O | 0.82 µM [falling, full curve] | 
63 | Cc1ccc(Nc2nc3nonc3[nH]c2=O)cc1C | 16.4 µM [falling, partial curve, poor fit] | 
64 | O=C(c1ccccc1)c1c[nH]c(C(=O)NNc2ccccc2)c1 | 7.94 µM [falling, partial curve] | 
